The supplement of paper PMC5949888
± gives the standard deviation of the averaged measurements. Most values lie at the floor of the assay. Slopes are relative: functional sequences can read slightly below zero.

Test system: Saccharomyces cerevisiae PS128 hsf1 delta, HSF1(1-493) fusion
Test: growth estimate (transactivation domain function in HSF1 fusion, heat-shock survival) (a.u. (slope of normalised read count over time)); higher = stronger growth at 37°C, i.e. more transactivation activity
Conditions: library: random library

| Substance | growth estimate |
| --- | --- |
| ENPPKWLTIKTAMQSGVLWG | < -0.25 |
| TLKESLTRLDVRKLMRR | < -0.25 |
| EAPMPQVQRTLIRIAPPMLV | < -0.25 |
| STGKHSNYRDLYS | < -0.25 |
| VNSANRGMLVRTES | < -0.25 |
| RILFGRRNRCWTLA | < -0.25 |
| LGMNINRSLDVYHRVRWCLR | < -0.25 |
| IPQKHGVSGL | < -0.25 |
| GMPVEDVRASSYAKFSPGRV | < -0.25 |
| RNSRLKPAKDADLGGFRRNC | < -0.25 |
| QIVLSGVNVPSVPNPGRTPN | < -0.25 |
| YSGHVMWT | < -0.25 |
| RKITRGWGGRRAPYSDSLPT | < -0.25 |
| VLMRGTVSLLSQDASQSVAE | < -0.25 |
| RQGPNCEAGSPQESPVSLSQ | -0.231 |
| RVAV | -0.209 ± 0.058 |
| VQSDVCFLAAWIAKEV | < -0.25 |
| LRGWLGRRRPMCGR | < -0.25 |
| LGPTDPRLTGCSRYRYTNAF | < -0.25 |
| PTIQVT | < -0.25 |
| TTGNGPMKGLSRSWPTDPAT | < -0.25 |
| HLMVG | < -0.25 |
| VVIYLEGVSP | < -0.25 |

| Substance | growth estimate |
| --- | --- |
| VML | < -0.25 |
| QTFLNGYDRYTYSRGRILPV | < -0.25 |
| VSVGNLLVPRMRPIRNTRRN | < -0.25 |
| VGQRLVAERIVAEQALSLDS | < -0.25 |
| ILIHTLLKGAEPTGKDKGL | -0.168 |
| HIEGGLGILAGAIYPSGGPP | < -0.25 |
| PWTR | < -0.25 |
| VFKTHYTNQGCLTFIRSLPD | -0.243 |
| WVGSPGDVQHHDAEM | < -0.25 |
| VYAKPPIFR | < -0.25 |
| TSFTLGHMTGQHASISLGAT | < -0.25 |
| AQRALNR | < -0.25 |
| RRGPPVLSSREDPGTTVEAV | < -0.25 |
| FSARQ | < -0.25 |
| IMRQLRLDALNVGVFGVSLP | < -0.25 |
| YYIVVEARRRY | < -0.25 |
| GLPGMGMGQSR | < -0.25 |
| NRG | < -0.25 |
| CPLKKSPAPDR | < -0.25 |
| DLRTWFLLAWTM | < -0.25 |
| LQRAAHYSERCLLASPRL | < -0.25 |
| RISACARGQSAGGGSVGIGG | < -0.25 |
| PARGSQLVEWECCRGRSC | < -0.25 |

Part of the list above, tab-delimited.
Substance	growth estimate
LRGWLGRRRPMCGR	< -0.25
IMRQLRLDALNVGVFGVSLP	< -0.25
NRG	< -0.25

(continued)

| Substance | growth estimate |
| --- | --- |
| PPSLPDWAVFWRNTDNCS | 0.388 |
| PRR | < -0.25 |
| RRRFKTRSAVSQETQEVPTK | < -0.25 |
| VEAKLCTAYKIGEGRWGCHS | < -0.25 |
| NLWVRT | -0.243 |
| REVHSV | -0.203 |
| LCLSTLSQLCLAEHWPRAWS | -0.246 |
| RKARGPLSKGCIFLGATTHL | < -0.25 |
| SVE | < -0.25 |
| MLEQFLGQTHALGETAAVVV | < -0.25 |
| MPRSLFVPVHGGKELATRLP | < -0.25 |
| FEGYENRGSLSSKGVSKGSP | < -0.25 |
| SVREITGVWTDLKGNGCSGG | < -0.25 |
| QQFPTGGDTRLCLSGYRNTV | < -0.25 |
| EGLMCTTLRHNESAYLRRGP | < -0.25 |
| LVRLRSPGSVRELNTAVNQA | < -0.25 |
| HQTQSESYALLSLRRHALPR | < -0.25 |
| VGGE | < -0.25 |
| AIENMPCSGRT | < -0.25 |
| KSDLSATPL | < -0.25 |
| RNSRCPGTRAMGLRILM | < -0.25 |
| AVGVGSASQ | < -0.25 |
| DFSIHPKGSLDATAGDRLLR | < -0.25 |

Quoted from the listing.
YSGHVMWT | growth estimate: < -0.25
LGMNINRSLDVYHRVRWCLR | growth estimate: < -0.25
MPRSLFVPVHGGKELATRLP | growth estimate: < -0.25
VGQRLVAERIVAEQALSLDS | growth estimate: < -0.25
VLMRGTVSLLSQDASQSVAE | growth estimate: < -0.25
HLMVG | growth estimate: < -0.25

Remaining list, next part:

| Substance | growth estimate |
| --- | --- |
| EKSLSTKRYELMKAGVGLIT | < -0.25 |
| VHARGGYGRPYPDNWLEY | < -0.25 |
| SCPNKCVGKRTLGKRFSAA | < -0.25 |
| REGHGGPQMSTRTA | < -0.25 |
| SFEFTRNRANRPKLMVALKG | < -0.25 |
| ATLYGRYQRLMSKGGTHHQP | < -0.25 |
| SIRRLT | < -0.25 |
| DHQSPPE | < -0.25 |
| VVEDWLAL | 4.02 |
| YNLT | < -0.25 |
| LRGNWNCRECQRSDRPIRLS | < -0.25 |
| DKLQRLRVIPIVLLHNGHSA | < -0.25 |
| LLRSAKTGAIGSWVKSVTAP | < -0.25 |
| VIFVTIGPPGELLALGGRGL | < -0.25 |
| CMKRLSDRGISWCYNAAIIP | < -0.25 |
| VSPVSCALNVDGSFMAPNAR | < -0.25 |
| PVPRRAAPRKSVNWCRRGLV | < -0.25 |
| RELRKRSKLLWTGDQ | < -0.25 |
| WIWLNN | < -0.25 |
| ECQIRLG | -0.233 |
| VGETPPSGWARPYPYADAQC | < -0.25 |
| ERYHTAMHVRSTSRAKSSQA | < -0.25 |
| HPYAGVAGM | < -0.25 |

| Substance | growth estimate |
| --- | --- |
| SVD | < -0.25 |
| SLARSLDRNARSSHFQGL | < -0.25 |
| ELWVQARSIGVVLGASRDPS | < -0.25 |
| SVLRQVSVDGESSVTGSCHV | < -0.25 |
| SRQLYSCESAGDTSVSVWVL | < -0.25 |
| YIRPPAIRWITGLYYLLTGP | < -0.25 |
| HRINPCPVQPKKHPRDVPRG | < -0.25 |
| GCNRVYRRRAGDNILRTAVS | < -0.25 |
| TATLYRFGM | < -0.25 |
| WLRLTMLHPVSY | -0.0136 |
| IVRHTERTDCGGLLNFPRAS | < -0.25 |
| ARLSIRSS | < -0.25 |
| NRGQGVLVGLCGFHSGVSN | < -0.25 |
| CRRVFLYSGPGRKI | < -0.25 |
| QPISRDMVALT | < -0.25 |
| STTRHGML | < -0.25 |
| GSSDPSYVIVSVP | < -0.25 |
| AVRETDTVRGELHRLGPQVG | < -0.25 |
| SRTGTKQQVRDVRWAVR | < -0.25 |
| DCASPLRY | < -0.25 |
| STSQLVRLRS | < -0.25 |
| CRLQRLFRVGFSLVR | < -0.25 |
| PGSTASRNSRIVYLHCERPR | < -0.25 |

| Substance | growth estimate |
| --- | --- |
| IKSQYRDTGMYVMSLTQGRM | < -0.25 |
| PVVGEETHTDTGQAV | < -0.25 |
| PGLES | < -0.25 |
| DSHYCARSSESCESRRRRQL | < -0.25 |
| RDASVGHLMHVGAGTLSAKG | < -0.25 |
| VYSQ | < -0.25 |
| VQVC | < -0.25 |
| RMNTAGNSVMILSVRGQLCI | < -0.25 |
| NVWGLGFDWLEVILTLQYRD | < -0.25 |
| AISVYPITNLSFSRTVECSG | < -0.25 |
| ALVTRASLGQRPNSFSAYAT | < -0.25 |
| HRRQAPLHASNLH | < -0.25 |
| LLPYPRSAACKVMN | < -0.25 |
| SHWWNV | < -0.25 |
| IIQRMDCVITLTVMYNGATC | < -0.25 |
| ISNSTAK | < -0.25 |
| GLRHPLHAD | < -0.25 |
| GRPLCIGGGGRLQTLSLSPR | < -0.25 |
| PRYDPKSELRTPIEVLPPPP | < -0.25 |
| KSSTCHHFLANNA | < -0.25 |
| VLFAVTVDHRVLVASRITSS | < -0.25 |
| VLGKDRMPAHIKKRRVGMHV | < -0.25 |
| RRVRLLAPSGMSRPHIHDIC | < -0.25 |

| Substance | growth estimate |
| --- | --- |
| SIFYTKVMRKGTSILN | < -0.25 |
| RGVGSWDFFLGET | < -0.25 |
| KRRHFKNAPI | < -0.25 |
| CFVISVKKYRALFAYVTLLA | < -0.25 |
| TSFLDA | < -0.25 |
| PGTCMPVYHRPKLTRRSP | < -0.25 |
| SNWRAWYYQSKVCVSYGKGR | < -0.25 |
| SFYMLGFAYR | < -0.25 |
| GDWTL | < -0.25 |
| RRTPRVQSWSLDSVSSYAVE | < -0.25 |
| EHGPSLSKRST | -0.243 |
| RPDVGLQQER | < -0.25 |
| TSERMVSTSD | < -0.25 |
| NMHDA | < -0.25 |
| NHRRESGSWFF | < -0.25 |
| SHGNTSIWKCREKFPPRTSF | < -0.25 |
| LCVMLQNFNSYPLAGNFCGL | < -0.25 |
| YVAAPSLGSNRLVVGGPSGG | < -0.25 |
| GVAKGNYDGN | -0.246 |
